From patent US5747447A, “Stable polypeptide composition” (COR Therapeutics, priority 1995, dated 1998)
At least one peptide structure holds a part that was inferred or is arguable (an end, a ring closure or a residue). Where a SMILES comes first, the peptide text is derived from it. Bridges are numbered along the chain shown (N, C = ends). [ ]: non-standard residue; d: D form. hArg = N=C(N)NCCCC[C@H](N)C(=O)O; Mpa = O=C(O)CCS

Experiments:
[1] = Stability of polypeptide I in citrate buffer, HPLC and visual (Example 1); format: physicochemical
Description: Citrate buffer solution is prepared by mixing citric acid in a volumetric flask to give a final citrate concentration of 25 mM with Nanopure water and adding NaOH to adjust the pH.
One ml aliquots of the above solution of polypeptide in citrate buffer were sealed in borosilicate glass ampules under sterile conditions and stored at a constant temperature. Test sample ampules from each pH and temperature condition 4° C., 50° C. and 70° C. were removed periodically, visually assessed and then analyzed separately by HPLC using a mobile phase comprising acetonitrile (MeCN) and 0.1% trifluoroacetic (TFA) in water. This stability was evaluated by conventional assay methods applicable to purity, weight or size of polypeptides. These included not only visual evaluations, such as discoloration, transparency and precipitation, and included assays normally applied to separate polypeptides from each other and from other materials by reversed phase high performance liquid chromatography (HPLC).
Results of these experiments are set forth in Table 1 in which the stability is expressed in terms of the percentage of main peak of original polypeptide found in the sample analyzed by HPLC. The composition was also found to be normal on visual evaluation.

M21 melanoma cells = assay: M21 melanoma cell adhesion to vitronectin-coated plates; format: cell-based
Description: M21 melanoma cells were labelled with ^35 S-methionine, and then added to vitronectin-coated plates in the presence of the indicated concentrations of purified snake venom peptides. Cell attachment was measured by solubilizing the cells remaining after an incubation and wash, as previously describe.

SMILES: N=C(N)NCCCC[C@@H]1NC(=O)CCSSC[C@@H](C(N)=O)NC(=O)[C@@H]2CCCN2C(=O)[C@H](Cc2c[nH]c3ccccc23)NC(=O)[C@H](CC(=O)O)NC(=O)CNC1=O [I, Mpr-L-homoarginine-Gly-Asp-Trp-Pro-Cys-NH2 .cndot.acetate] ([Mpa][hArg]GDWPC-NH2; disulfide 1-7)
- percentage of main peak of original polypeptide (HPLC) ([1]; 4° C., pH 5.5, Time (min) 21.0): 100%
- percentage of main peak of original polypeptide (HPLC) ([1]; 4° C., pH 5.5, Time (min) 45.5): 99%
- percentage of main peak of original polypeptide (HPLC) ([1]; 4° C., pH 5.5, Time (min) 167.5): 99%
- percentage of main peak of original polypeptide (HPLC) ([1]; 4° C., pH 5.5, Time (min) 503.5): 99%
- percentage of main peak of original polypeptide (HPLC) ([1]; 4° C., pH 5.5, Time (min) 837.5): 101%
- percentage of main peak of original polypeptide (HPLC) ([1]; 4° C., pH 5.5, Time (min) 1173.5): 101%
- percentage of main peak of original polypeptide (HPLC) ([1]; 4° C., pH 6.0, Time (min) 21.0): 100%
- percentage of main peak of original polypeptide (HPLC) ([1]; 4° C., pH 6.0, Time (min) 45.5): 98%
- percentage of main peak of original polypeptide (HPLC) ([1]; 4° C., pH 6.0, Time (min) 167.5): 98%
- percentage of main peak of original polypeptide (HPLC) ([1]; 4° C., pH 6.0, Time (min) 503.5): 96%
- percentage of main peak of original polypeptide (HPLC) ([1]; 4° C., pH 6.0, Time (min) 837.5): 100%
- percentage of main peak of original polypeptide (HPLC) ([1]; 4° C., pH 6.0, Time (min) 1173.5): 100%
- percentage of main peak of original polypeptide (HPLC) ([1]; 4° C., pH = 5.0, Time (min) 21.0): 100%
- percentage of main peak of original polypeptide (HPLC) ([1]; 4° C., pH = 5.0, Time (min) 45.5): 100%
- percentage of main peak of original polypeptide (HPLC) ([1]; 4° C., pH = 5.0, Time (min) 167.5): 100%
- percentage of main peak of original polypeptide (HPLC) ([1]; 4° C., pH = 5.0, Time (min) 503.5): 98%
- percentage of main peak of original polypeptide (HPLC) ([1]; 4° C., pH = 5.0, Time (min) 837.5): 100%
- percentage of main peak of original polypeptide (HPLC) ([1]; 4° C., pH = 5.0, Time (min) 1173.5): 100%
- percentage of main peak of original polypeptide (HPLC) ([1]; 50° C., pH 5.5, Time (min) 21.0): 100%
- percentage of main peak of original polypeptide (HPLC) ([1]; 50° C., pH 5.5, Time (min) 45.5): 95%
- percentage of main peak of original polypeptide (HPLC) ([1]; 50° C., pH 5.5, Time (min) 167.5): 99%
- percentage of main peak of original polypeptide (HPLC) ([1]; 50° C., pH 5.5, Time (min) 503.5): 92%
- percentage of main peak of original polypeptide (HPLC) ([1]; 50° C., pH 5.5, Time (min) 837.5): 94%
- percentage of main peak of original polypeptide (HPLC) ([1]; 50° C., pH 5.5, Time (min) 1173.5): 92%
- percentage of main peak of original polypeptide (HPLC) ([1]; 50° C., pH 6.0, Time (min) 21.0): 98%
- percentage of main peak of original polypeptide (HPLC) ([1]; 50° C., pH 6.0, Time (min) 45.5): 94%
- percentage of main peak of original polypeptide (HPLC) ([1]; 50° C., pH 6.0, Time (min) 167.5): 97%
- percentage of main peak of original polypeptide (HPLC) ([1]; 50° C., pH 6.0, Time (min) 503.5): 89%
- percentage of main peak of original polypeptide (HPLC) ([1]; 50° C., pH 6.0, Time (min) 837.5): 88%
- percentage of main peak of original polypeptide (HPLC) ([1]; 50° C., pH 6.0, Time (min) 1173.5): 83%
- percentage of main peak of original polypeptide (HPLC) ([1]; 50° C., pH = 5.0, Time (min) 21.0): 99%
- percentage of main peak of original polypeptide (HPLC) ([1]; 50° C., pH = 5.0, Time (min) 45.5): 97%
- percentage of main peak of original polypeptide (HPLC) ([1]; 50° C., pH = 5.0, Time (min) 167.5): 98%
- percentage of main peak of original polypeptide (HPLC) ([1]; 50° C., pH = 5.0, Time (min) 503.5): 94%
- percentage of main peak of original polypeptide (HPLC) ([1]; 50° C., pH = 5.0, Time (min) 837.5): 95%
- percentage of main peak of original polypeptide (HPLC) ([1]; 50° C., pH = 5.0, Time (min) 1173.5): 92%
- percentage of main peak of original polypeptide (HPLC) ([1]; 70° C., pH 5.5, Time (min) 21.0): 96%
- percentage of main peak of original polypeptide (HPLC) ([1]; 70° C., pH 5.5, Time (min) 45.5): 88%
- percentage of main peak of original polypeptide (HPLC) ([1]; 70° C., pH 5.5, Time (min) 167.5): 80%
- percentage of main peak of original polypeptide (HPLC) ([1]; 70° C., pH 5.5, Time (min) 503.5): 51%
- percentage of main peak of original polypeptide (HPLC) ([1]; 70° C., pH 5.5, Time (min) 837.5): 36%
- percentage of main peak of original polypeptide (HPLC) ([1]; 70° C., pH 5.5, Time (min) 1173.5): 22%
- percentage of main peak of original polypeptide (HPLC) ([1]; 70° C., pH 6.0, Time (min) 21.0): 94%
- percentage of main peak of original polypeptide (HPLC) ([1]; 70° C., pH 6.0, Time (min) 45.5): 83%
- percentage of main peak of original polypeptide (HPLC) ([1]; 70° C., pH 6.0, Time (min) 167.5): 68%
- percentage of main peak of original polypeptide (HPLC) ([1]; 70° C., pH 6.0, Time (min) 503.5): 33%
- percentage of main peak of original polypeptide (HPLC) ([1]; 70° C., pH 6.0, Time (min) 837.5): 20%
- percentage of main peak of original polypeptide (HPLC) ([1]; 70° C., pH 6.0, Time (min) 1173.5): 13%
- percentage of main peak of original polypeptide (HPLC) ([1]; 70° C., pH = 5.0, Time (min) 21.0): 99%
- percentage of main peak of original polypeptide (HPLC) ([1]; 70° C., pH = 5.0, Time (min) 45.5): 91%
- percentage of main peak of original polypeptide (HPLC) ([1]; 70° C., pH = 5.0, Time (min) 167.5): 80%
- percentage of main peak of original polypeptide (HPLC) ([1]; 70° C., pH = 5.0, Time (min) 503.5): 47%
- percentage of main peak of original polypeptide (HPLC) ([1]; 70° C., pH = 5.0, Time (min) 837.5): 29%
- percentage of main peak of original polypeptide (HPLC) ([1]; 70° C., pH = 5.0, Time (min) 1173.5): 17%

SMILES: N=C(N)NCCCC[C@@H]1NC(=O)CCSSC[C@@H](C(N)=O)NC(=O)[C@@H]2CCCN2C(=O)[C@H](Cc2c[nH]c3ccccc23)NC(=O)[C@H](CC(=O)O)NC(=O)CNC1=O [Analog #60, Mpr-(Har)-G-D-W-P-C-NH2] ([Mpa][hArg]GDWPC-NH2; disulfide 1-7)
- M21 cell attachment to vitronectin (in words) (M21 melanoma cells): relatively less effective in preventing cell adhesion to vitronectin

SMILES: N=C(N)NCCC[C@H](N)C(=O)NCC(=O)N[C@@H](CC(=O)O)C(=O)N[C@@H](CO)C(=O)O [RGDS, reference compound]
- M21 cell attachment to vitronectin (in words) (M21 melanoma cells): potent inhibitors of cell attachment
